Patent US5604256A, “Octahydronaphthalene oxime derivatives for cholesterol biosynthesis inhibition” (Sankyo Company, Limited, priority 1992, dated 1997)
pIC50: −log10 of the molar value. Structures were worked out from names or drawings and are uncertain.

Chains of the proteins cited; added tags and fusions are not shown.
UniProt P51639, whole entry: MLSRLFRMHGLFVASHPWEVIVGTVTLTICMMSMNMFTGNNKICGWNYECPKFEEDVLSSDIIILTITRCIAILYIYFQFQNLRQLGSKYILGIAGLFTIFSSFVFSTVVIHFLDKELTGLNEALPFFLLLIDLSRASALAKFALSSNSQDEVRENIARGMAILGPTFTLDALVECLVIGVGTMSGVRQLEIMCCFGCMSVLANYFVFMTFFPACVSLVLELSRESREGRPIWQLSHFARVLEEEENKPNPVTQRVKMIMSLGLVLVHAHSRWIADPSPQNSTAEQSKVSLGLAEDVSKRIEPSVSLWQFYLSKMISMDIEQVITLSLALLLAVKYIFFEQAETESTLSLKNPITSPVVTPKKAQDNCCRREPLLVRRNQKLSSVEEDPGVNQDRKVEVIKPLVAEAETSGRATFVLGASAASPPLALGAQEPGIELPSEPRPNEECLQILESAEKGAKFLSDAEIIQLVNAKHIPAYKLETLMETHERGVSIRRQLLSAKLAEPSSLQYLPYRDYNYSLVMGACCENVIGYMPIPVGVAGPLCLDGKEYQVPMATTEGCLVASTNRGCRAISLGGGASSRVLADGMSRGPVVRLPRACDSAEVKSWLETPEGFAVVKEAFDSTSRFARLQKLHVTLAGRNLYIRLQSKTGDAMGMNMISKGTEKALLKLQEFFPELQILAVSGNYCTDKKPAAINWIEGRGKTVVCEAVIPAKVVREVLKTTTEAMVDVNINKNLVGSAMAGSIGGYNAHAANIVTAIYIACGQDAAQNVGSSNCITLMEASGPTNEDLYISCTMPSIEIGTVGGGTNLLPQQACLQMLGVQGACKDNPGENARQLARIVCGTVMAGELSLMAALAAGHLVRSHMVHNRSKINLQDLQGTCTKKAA

Target: HMG-CoA reductase (Rattus norvegicus, UniProt P51639)
Settings: for pIC50: read-out: HMG-CoA reductase IC50, Table 3

Compound | pIC50 | activity compared with the directly comparable (original) hydroxy compounds (comparison in words, from Table 3)
CCC(C)C(=O)OC1CC(C)C=C2C=CC(C)C(CCC(=O)CC(O)CC(=O)O)C21 (stereo not drawn) | 6.22 | 
CCC(C)(C)C(=O)OC1CC(C)C=C2C=CC(C)C(CCC(=O)CC(O)CC(=O)O)C21 (stereo not drawn) | 6.31 | the activity is very much lower than in the original hydroxy compounds
